PubChem BioAssay AID504808, Drosophila RNAi Screening Center, 2011

- Purpose: 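Genes whose loss lifts activity of an E2F-responsive reporter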 (primary screen)
- System: Drosophila S2 cells
- Reagents: long dsRNA against Drosophila genes
- Measured: 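Firefly luciferase driven by E2F sites, normalised to Renilla luciferase on the same minimal promoter, measured by plate reader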
- Reading the numbers: E2F firefly: higher = more E2F reporter activity; Renilla normaliser: higher = more normaliser reporter signal
- Hit rule: 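a knock-down counted as active when the firefly/Renilla E2F signal rose above 50%, a threshold chosen arbitrarily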
The screen tested about 21,000 reagents; shown is a random part of those with a known target gene and a result. Over the whole deposit, 18 (0.084%) got an active call. 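Raw counts without plate normalisation, one of two replicates; the ratio scores behind the calls were not deposited.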 A plus sign joins genes that one reagent is predicted to hit. Not given: the amount of reagent, the time to read-out.

target | DRSC id | E2F firefly, rep 1 | Renilla normaliser, rep 1 | Call
Rsph4a (GeneID 37831) | DRSC04338 | 79799 | 3115 | inactive
neb (GeneID 35293) | DRSC03577 | 80867 | 3405 | inactive
Srx (GeneID 32768) | DRSC20005 | 1.55e5 | 7323 | inactive
Spn88Ea (GeneID 49804) | DRSC17061 | 1.09e5 | 5506 | inactive
ro (GeneID 43234) | DRSC17046 | 81868 | 4948 | inactive
pan (GeneID 43769) | DRSC17176 | 1874 | 768 | inactive
HtrA2 (GeneID 41756) | DRSC16425 | 1.15e5 | 5604 | inactive
CG2310 (GeneID 43473) | DRSC15438 | 1.18e5 | 5875 | inactive
CG8435 (GeneID 36789) | DRSC07179 | 65679 | 4139 | inactive
Osi14 (GeneID 40770) | DRSC12368 | 1.28e5 | 5369 | inactive
CG14194 (GeneID 32908) | DRSC19549 | 1.27e5 | 485 | inactive
CG3701 (retired record) (GeneID 37568) | DRSC04408 | 97478 | 4496 | inactive
CG3701 (retired record) (GeneID 37568) | DRSC04409 | 1.13e5 | 4454 | inactive
CG13255 (GeneID 50109) | DRSC11702 | 1.37e5 | 7232 | inactive
CG31010 (GeneID 318555) | DRSC14006 | 95711 | 2981 | inactive
Brd8 (GeneID 43460) | DRSC14866 | 2758 | 1140 | active
CG10163 (GeneID 38728) | DRSC09710 | 1.02e5 | 4303 | inactive
CG13380 + CG4174 | DRSC09988 | 63993 | 3774 | inactive
CG13380 + CG4174 | DRSC10406 | 1.63e5 | 7435 | inactive
CG5921 (GeneID 31538) | DRSC17431 | 81405 | 2365 | inactive
CG5921 (GeneID 31538) | DRSC18390 | 1.21e5 | 5280 | inactive
CG13481 (GeneID 39579) | DRSC10023 | 1.88e5 | 8455 | inactive
edin (GeneID 317900) | DRSC09488 | 1.41e5 | 3939 | inactive
dre4 (GeneID 38248) | DRSC08714 | 92546 | 3659 | inactive
Ugt35E1 (GeneID 53504) | DRSC15193 | 1.57e5 | 6814 | inactive
CG32639 (GeneID 318134) | DRSC18972 | 80947 | 2432 | inactive
Snx27 (GeneID 31493) | DRSC17786 | 1.09e5 | 5662 | inactive
Snx27 (GeneID 31493) | DRSC18282 | 1.13e5 | 5385 | inactive
Snx27 (GeneID 31493) | DRSC18284 | 1.20e5 | 4892 | inactive
CG18585 (GeneID 34041) | DRSC02678 | 98047 | 4028 | inactive
ND-B17 (GeneID 34925) | DRSC01981 | 99237 | 4854 | inactive
CG6472 (GeneID 36895) | DRSC06989 | 1.62e5 | 5577 | inactive
vn (GeneID 38657) | DRSC11408 | 81355 | 3812 | inactive
Wnt4 (GeneID 34007) | DRSC00976 | 1.01e5 | 5432 | inactive
Wnt4 (GeneID 34007) | DRSC03477 | 1.51e5 | 4841 | inactive
Had2 (GeneID 36624) | DRSC05971 | 3148 | 193 | inactive
COX6B (GeneID 32989) | DRSC19590 | 1.59e5 | 6289 | inactive
l(2)k09913 (GeneID 37661) | DRSC04699 | 76543 | 3755 | inactive

Entries listed so far with an active call, once more:
target | DRSC id | E2F firefly, rep 1 | Renilla normaliser, rep 1 | Call
Brd8 (GeneID 43460) | DRSC14866 | 2758 | 1140 | active

The results go on:
target | DRSC id | E2F firefly, rep 1 | Renilla normaliser, rep 1 | Call
CG8192 (GeneID 36723) | DRSC07101 | 59702 | 2840 | inactive
CG4066 (GeneID 41493) | DRSC15541 | 1.57e5 | 6592 | inactive
CG1113 (GeneID 40629) | DRSC12163 | 1.31e5 | 6460 | inactive
Gpo1 (GeneID 47611) | DRSC07128 | 66939 | 3384 | inactive
CG3288 (GeneID 40307) | DRSC11745 | 1.49e5 | 8250 | inactive
Polr2K (GeneID 5740790) | DRSC05535 | 97482 | 4407 | inactive
CSN1a (GeneID 34857) | DRSC01951 | 85673 | 3973 | inactive
CG5938 (GeneID 43290) | DRSC15923 | 1885 | 932 | inactive
CG13488 (GeneID 37496) | DRSC04133 | 1.11e5 | 4513 | inactive
RpL35A (GeneID 40654) | DRSC12302 | 71038 | 6044 | inactive
comm2 (GeneID 39716) | DRSC09881 | 1.67e5 | 7852 | inactive
comm2 (GeneID 39716) | DRSC10877 | 1.89e5 | 8738 | inactive
CG32750 (GeneID 326238) | DRSC18848 | 1.10e5 | 5013 | inactive
Vps33B (GeneID 43077) | DRSC15722 | 1971 | 792 | inactive
Pfas (GeneID 33847) | DRSC03480 | 87064 | 3874 | inactive
CG42557 + CG42558 | DRSC13963 | 83750 | 2995 | inactive
CG42557 + CG42558 | DRSC16329 | 1817 | 896 | inactive
mesh (GeneID 43688) | DRSC14472 | 48749 | 3997 | inactive
mesh (GeneID 43688) | DRSC15098 | 1.14e5 | 6812 | inactive
mesh (GeneID 43688) | DRSC15099 | 1.14e5 | 6955 | inactive
CG42514 (GeneID 8674108) | DRSC10428 | 87252 | 4431 | inactive
Prosbeta2 (GeneID 39628) | DRSC11257 | 51413 | 4020 | inactive
Prosbeta4R2 (GeneID 33451) | DRSC00503 | 87725 | 3348 | inactive
CG5515 (GeneID 42875) | DRSC15825 | 66692 | 3062 | inactive
sxc (GeneID 35486) | DRSC04911 | 1.08e5 | 4819 | inactive
Tim13 (GeneID 39327) | DRSC09848 | 1.21e5 | 7732 | inactive
Nubp2 (GeneID 40282) | DRSC11758 | 1.29e5 | 6195 | inactive
Ns4 (GeneID 35338) | DRSC03199 | 83514 | 3321 | inactive
CG32536 + CG32537 | DRSC20074 | 1.29e5 | 5144 | inactive
CG7781 (GeneID 34143) | DRSC03068 | 1.42e5 | 4944 | inactive
S-Lap2 (GeneID 326209) | DRSC10628 | 1.05e5 | 3770 | inactive
Pp1-Y1 (GeneID 5740113) | DRSC20896 | 76768 | 2598 | inactive
Mtmr6 (GeneID 37707) | DRSC04046 | 1.01e5 | 3801 | inactive
if (GeneID 32661) | DRSC20341 | 2.26e5 | 10743 | inactive
CG34253 (GeneID 5740501) | DRSC09531 | 1.25e5 | 3933 | inactive
dcma (GeneID 5740672) | DRSC00246 | 1.38e5 | 5802 | inactive
dcma (GeneID 5740672) | DRSC00338 | 1.49e5 | 5450 | inactive
CG3609 (GeneID 33421) | DRSC00620 | 1.57e5 | 5924 | inactive
cbc (GeneID 36494) | DRSC06957 | 2940 | 236 | inactive
CG32032 (GeneID 192535) | DRSC08961 | 1.26e5 | 4768 | inactive
CG15099 (GeneID 37176) | DRSC06528 | 75795 | 3694 | inactive
Fdh (GeneID 41311) | DRSC16670 | 73083 | 3558 | inactive
ReepB (GeneID 36569) | DRSC07150 | 3173 | 233 | inactive
CG32354 (GeneID 50302) | DRSC10763 | 76825 | 3535 | inactive
CG32354 (GeneID 50302) | DRSC10775 | 93404 | 3772 | inactive
CG33770 (GeneID 3772256) | DRSC11717 | 1.34e5 | 5723 | inactive
